These are yes or no findings as the source states them, for the method shown. For some of these results: Binding seen in cells or lysates may run through a third protein. Some binding calls cover weakened binding; strength is not graded here. For some of these results: Sequences can lack the tags named with a protein.
Assays:
[1] = target: T1, ScAPC2 fused to the GAL4 activation domain (yeast; S. cerevisiae) (UniProt Q12440); assay: yeast two-hybrid in HF7c cells
T1 sequence (looked up): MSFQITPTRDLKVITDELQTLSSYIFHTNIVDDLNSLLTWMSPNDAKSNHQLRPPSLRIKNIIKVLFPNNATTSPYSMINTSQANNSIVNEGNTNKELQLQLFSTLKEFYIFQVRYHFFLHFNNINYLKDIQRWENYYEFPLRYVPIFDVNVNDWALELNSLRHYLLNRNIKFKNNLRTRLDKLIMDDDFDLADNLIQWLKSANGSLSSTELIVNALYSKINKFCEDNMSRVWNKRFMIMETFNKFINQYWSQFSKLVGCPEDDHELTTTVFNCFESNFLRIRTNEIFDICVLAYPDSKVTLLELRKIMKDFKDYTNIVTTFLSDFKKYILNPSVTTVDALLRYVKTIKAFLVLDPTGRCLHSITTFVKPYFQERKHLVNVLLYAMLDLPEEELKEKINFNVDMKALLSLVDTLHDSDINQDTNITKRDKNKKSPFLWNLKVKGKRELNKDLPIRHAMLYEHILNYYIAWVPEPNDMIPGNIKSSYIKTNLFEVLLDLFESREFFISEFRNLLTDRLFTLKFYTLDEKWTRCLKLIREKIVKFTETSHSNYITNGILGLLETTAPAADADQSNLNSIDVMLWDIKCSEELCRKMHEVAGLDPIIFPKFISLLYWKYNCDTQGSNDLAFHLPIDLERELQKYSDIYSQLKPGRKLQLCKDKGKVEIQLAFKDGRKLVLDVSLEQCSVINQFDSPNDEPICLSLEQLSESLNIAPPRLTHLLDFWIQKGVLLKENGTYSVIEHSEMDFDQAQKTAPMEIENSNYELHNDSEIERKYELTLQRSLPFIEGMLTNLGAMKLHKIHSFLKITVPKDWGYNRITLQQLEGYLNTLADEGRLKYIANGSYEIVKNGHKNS

By UniProt entry, the sequences of proteins in these tests, tags left out. Where a name states a change or a piece, a line headed by the entry shows the natural chain unless it says otherwise. Residues count along the entry.
UniProt Q93034: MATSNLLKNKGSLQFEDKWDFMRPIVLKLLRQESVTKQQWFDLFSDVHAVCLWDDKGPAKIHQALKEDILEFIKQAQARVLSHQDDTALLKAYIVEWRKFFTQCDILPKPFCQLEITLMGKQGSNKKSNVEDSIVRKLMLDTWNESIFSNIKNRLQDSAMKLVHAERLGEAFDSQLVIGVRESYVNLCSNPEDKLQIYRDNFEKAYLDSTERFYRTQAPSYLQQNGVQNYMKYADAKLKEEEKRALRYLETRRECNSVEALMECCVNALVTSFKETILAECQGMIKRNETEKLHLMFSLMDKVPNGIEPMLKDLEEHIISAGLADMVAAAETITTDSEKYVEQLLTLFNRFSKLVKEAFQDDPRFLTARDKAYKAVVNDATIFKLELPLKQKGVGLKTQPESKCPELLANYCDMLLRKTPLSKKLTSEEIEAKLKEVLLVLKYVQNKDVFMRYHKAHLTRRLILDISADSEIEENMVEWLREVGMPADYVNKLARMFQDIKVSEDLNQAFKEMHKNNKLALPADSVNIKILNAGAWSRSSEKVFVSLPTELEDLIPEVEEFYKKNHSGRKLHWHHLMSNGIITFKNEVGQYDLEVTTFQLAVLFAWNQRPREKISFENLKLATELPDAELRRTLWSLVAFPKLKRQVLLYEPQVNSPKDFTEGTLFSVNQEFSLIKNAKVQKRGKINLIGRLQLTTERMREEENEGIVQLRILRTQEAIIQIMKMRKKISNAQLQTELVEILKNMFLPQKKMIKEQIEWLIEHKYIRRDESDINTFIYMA
UniProt Q8BZQ7, residues 15-837: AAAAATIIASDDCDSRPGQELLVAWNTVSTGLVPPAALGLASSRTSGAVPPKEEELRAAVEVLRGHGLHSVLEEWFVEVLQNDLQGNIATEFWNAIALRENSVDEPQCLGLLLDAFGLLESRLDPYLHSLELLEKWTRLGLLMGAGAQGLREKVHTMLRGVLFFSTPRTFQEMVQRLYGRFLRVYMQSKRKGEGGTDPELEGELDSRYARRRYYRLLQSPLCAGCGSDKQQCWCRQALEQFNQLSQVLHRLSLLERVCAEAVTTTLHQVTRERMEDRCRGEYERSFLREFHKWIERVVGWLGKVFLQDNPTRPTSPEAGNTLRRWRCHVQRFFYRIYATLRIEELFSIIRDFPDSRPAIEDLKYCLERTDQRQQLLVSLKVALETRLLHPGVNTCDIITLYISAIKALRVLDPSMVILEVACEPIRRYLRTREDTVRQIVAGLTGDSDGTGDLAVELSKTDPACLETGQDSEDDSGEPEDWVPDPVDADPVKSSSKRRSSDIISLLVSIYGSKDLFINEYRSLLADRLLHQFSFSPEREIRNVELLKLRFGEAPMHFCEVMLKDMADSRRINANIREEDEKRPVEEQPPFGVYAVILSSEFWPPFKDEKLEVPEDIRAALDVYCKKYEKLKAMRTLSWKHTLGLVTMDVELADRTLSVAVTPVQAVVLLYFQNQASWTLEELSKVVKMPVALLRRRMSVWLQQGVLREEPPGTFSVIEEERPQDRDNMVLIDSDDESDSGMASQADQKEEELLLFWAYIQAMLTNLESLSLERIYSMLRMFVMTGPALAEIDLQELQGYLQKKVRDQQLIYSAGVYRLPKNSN
UniProt P04386: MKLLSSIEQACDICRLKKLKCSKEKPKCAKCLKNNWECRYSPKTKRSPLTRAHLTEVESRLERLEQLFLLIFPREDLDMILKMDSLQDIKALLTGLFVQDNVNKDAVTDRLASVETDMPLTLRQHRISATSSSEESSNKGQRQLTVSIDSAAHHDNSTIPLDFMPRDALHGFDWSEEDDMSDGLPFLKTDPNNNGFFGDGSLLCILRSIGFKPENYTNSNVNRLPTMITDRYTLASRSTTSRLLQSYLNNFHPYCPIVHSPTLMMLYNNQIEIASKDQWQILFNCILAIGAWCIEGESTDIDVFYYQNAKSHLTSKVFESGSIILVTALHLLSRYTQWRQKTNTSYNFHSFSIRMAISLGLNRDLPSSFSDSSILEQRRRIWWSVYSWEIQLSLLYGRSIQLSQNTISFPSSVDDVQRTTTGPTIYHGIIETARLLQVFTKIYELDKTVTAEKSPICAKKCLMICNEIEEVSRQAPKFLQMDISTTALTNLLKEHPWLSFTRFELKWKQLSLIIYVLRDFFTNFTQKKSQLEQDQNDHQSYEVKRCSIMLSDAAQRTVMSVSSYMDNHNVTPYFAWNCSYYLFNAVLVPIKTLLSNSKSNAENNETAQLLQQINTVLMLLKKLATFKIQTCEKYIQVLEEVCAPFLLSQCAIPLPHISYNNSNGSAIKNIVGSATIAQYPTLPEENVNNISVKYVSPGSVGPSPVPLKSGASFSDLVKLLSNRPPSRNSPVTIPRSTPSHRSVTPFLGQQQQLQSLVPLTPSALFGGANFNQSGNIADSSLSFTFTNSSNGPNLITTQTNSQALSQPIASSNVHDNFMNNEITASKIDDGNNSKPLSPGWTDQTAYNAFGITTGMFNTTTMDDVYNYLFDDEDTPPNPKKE
UniProt Q13617: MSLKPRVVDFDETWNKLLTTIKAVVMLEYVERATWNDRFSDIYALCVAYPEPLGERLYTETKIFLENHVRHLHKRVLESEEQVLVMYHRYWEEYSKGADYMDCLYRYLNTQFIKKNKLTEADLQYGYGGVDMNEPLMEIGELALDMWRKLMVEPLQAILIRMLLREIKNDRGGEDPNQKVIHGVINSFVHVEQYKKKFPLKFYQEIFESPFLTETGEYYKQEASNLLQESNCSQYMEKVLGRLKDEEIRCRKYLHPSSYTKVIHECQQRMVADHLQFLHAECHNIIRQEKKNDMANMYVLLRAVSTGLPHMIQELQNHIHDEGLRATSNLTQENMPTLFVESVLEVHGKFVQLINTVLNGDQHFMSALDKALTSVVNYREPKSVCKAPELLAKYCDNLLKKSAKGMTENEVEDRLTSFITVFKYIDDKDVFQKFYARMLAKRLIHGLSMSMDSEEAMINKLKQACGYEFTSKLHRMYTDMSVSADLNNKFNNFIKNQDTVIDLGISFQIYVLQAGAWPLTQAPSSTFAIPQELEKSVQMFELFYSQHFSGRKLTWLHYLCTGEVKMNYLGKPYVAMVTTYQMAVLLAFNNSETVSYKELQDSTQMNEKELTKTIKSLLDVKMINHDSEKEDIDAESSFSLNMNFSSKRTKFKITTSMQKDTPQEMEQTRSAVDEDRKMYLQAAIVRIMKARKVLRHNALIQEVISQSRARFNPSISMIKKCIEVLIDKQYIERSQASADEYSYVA
UniProt Q3TCH7: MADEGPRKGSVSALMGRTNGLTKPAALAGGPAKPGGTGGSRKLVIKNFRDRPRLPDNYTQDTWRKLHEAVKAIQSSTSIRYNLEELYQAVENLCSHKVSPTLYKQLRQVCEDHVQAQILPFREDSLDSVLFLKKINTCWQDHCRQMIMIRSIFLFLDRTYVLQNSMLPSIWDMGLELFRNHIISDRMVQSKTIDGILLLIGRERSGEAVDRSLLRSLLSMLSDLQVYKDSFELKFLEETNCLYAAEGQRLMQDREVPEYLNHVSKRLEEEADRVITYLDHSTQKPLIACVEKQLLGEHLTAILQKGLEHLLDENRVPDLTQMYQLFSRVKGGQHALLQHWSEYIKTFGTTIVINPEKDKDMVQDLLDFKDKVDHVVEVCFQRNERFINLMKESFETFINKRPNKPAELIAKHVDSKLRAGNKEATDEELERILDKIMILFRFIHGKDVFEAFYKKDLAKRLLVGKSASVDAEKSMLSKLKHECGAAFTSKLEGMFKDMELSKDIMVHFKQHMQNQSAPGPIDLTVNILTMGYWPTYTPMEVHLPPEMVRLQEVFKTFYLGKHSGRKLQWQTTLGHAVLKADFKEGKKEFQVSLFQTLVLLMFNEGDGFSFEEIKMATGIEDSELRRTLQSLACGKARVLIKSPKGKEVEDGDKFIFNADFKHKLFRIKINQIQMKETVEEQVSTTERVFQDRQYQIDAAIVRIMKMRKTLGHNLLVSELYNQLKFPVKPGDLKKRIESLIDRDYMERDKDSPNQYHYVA
UniProt Q13616: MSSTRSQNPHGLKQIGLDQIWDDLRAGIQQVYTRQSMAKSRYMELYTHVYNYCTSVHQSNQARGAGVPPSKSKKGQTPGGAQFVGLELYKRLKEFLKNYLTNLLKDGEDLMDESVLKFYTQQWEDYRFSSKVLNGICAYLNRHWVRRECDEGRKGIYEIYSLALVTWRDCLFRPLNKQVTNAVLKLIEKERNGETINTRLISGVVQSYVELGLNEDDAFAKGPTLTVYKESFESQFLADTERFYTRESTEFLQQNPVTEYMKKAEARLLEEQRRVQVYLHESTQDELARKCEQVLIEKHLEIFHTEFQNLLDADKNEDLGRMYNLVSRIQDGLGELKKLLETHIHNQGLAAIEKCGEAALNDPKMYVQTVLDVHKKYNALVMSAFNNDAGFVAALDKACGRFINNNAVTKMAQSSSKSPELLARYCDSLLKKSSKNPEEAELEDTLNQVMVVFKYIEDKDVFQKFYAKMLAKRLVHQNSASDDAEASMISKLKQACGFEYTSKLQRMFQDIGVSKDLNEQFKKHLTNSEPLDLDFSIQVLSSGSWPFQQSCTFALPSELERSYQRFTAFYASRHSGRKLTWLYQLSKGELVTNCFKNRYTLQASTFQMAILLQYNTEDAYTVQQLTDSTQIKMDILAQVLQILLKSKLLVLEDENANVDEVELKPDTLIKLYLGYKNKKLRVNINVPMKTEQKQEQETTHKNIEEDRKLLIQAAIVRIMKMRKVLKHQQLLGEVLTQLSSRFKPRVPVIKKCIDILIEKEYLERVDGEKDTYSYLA
UniProt Q9NYG5: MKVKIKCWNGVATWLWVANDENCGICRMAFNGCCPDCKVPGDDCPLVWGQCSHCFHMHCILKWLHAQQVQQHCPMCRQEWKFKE
UniProt Q9UBF6: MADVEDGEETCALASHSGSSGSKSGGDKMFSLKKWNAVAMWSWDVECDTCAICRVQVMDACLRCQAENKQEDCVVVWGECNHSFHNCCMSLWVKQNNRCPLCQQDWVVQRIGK

[2] = target: T1, ScAPC2 fused to the GAL4 activation domain (yeast; S. cerevisiae); assay: yeast two-hybrid, activation of the histidine reporter gene; ScROC1 as DNA binding domain fusion
[3] = target: myc-epitope tagged cullin 5 (UniProt Q93034); assay: co-immunoprecipitation with anti-HA from transfected cells
[4] = target: myc-epitope tagged APC2 (mouse) (UniProt Q8BZQ7); assay: reciprocal co-immunoprecipitation from transfected HeLa cells
[5] = target: myc-epitope tagged cullin 5 (UniProt Q93034); assay: co-immunoprecipitation from [35S]-methionine labelled transfected cells
[6] = target: cullin 5 fused to the Gal4 DNA-binding domain (yeast) (UniProt P04386+Q93034); assay: yeast two-hybrid
[7] = target: mouse APC2 fused to the Gal4 DNA-binding domain (yeast; mouse) (UniProt P04386+Q8BZQ7); assay: yeast two-hybrid, -LWH with 5 mM 3-AT
[8] = target: cullin 2 fused to the Gal4 DNA-binding domain (yeast) (UniProt P04386+Q13617); assay: yeast two-hybrid
[9] = target: full-length mouse cullin 4A fused to the Gal4 DNA-binding domain (yeast; mouse) (UniProt P04386+Q3TCH7); assay: yeast two-hybrid
[10] = target: human CUL1 fused to the Gal4 DNA-binding domain (yeast; human) (UniProt P04386+Q13616); assay: yeast two-hybrid
[11] = target: myc-epitope tagged cullin 2 (UniProt Q13617); assay: reciprocal co-immunoprecipitation with anti-myc
[12] = target: myc-epitope tagged mouse cullin 4A (mouse) (UniProt Q3TCH7); assay: reciprocal co-immunoprecipitation with anti-myc
[13] = target: myc-epitope tagged cullin 5 (UniProt Q93034); assay: immunoprecipitation with anti-myc from transfected cells
[14] = target: human CUL1 (untagged: transfected, in vitro translated or endogenous) (human) (UniProt Q13616); assay: immunoprecipitation with anti-CUL1 from transfected cells
[15] = target: human CUL1 (untagged: transfected, in vitro translated or endogenous) (human) (UniProt Q13616); assay: co-immunoprecipitation from [35S]-methionine labelled transfected cells
[16] = target: myc-epitope tagged cullin 2 (UniProt Q13617); assay: as above
[17] = target: myc-epitope tagged mouse cullin 4A (mouse) (UniProt Q3TCH7); assay: as above
[18] = target: human CUL1 (untagged: transfected, in vitro translated or endogenous) (human) (UniProt Q13616); assay: co-immunoprecipitation with anti-HA from [35S]-methionine labelled transfected cells
[19] = target: myc-epitope tagged cullin 2 (UniProt Q13617); assay: as above
[20] = target: myc-epitope tagged cullin 5 (UniProt Q93034); assay: as above
[21] = target: myc-epitope tagged mouse cullin 4A (mouse) (UniProt Q3TCH7); assay: as above

Measured: binding

ScROC1 fused to the GAL4 DNA binding domain (pGBT8-ScROC1) (from UniProt P04386 1-147; Q08273 1-121)
binds: [1] | [2]

HA tagged human APC11 (from UniProt Q9NYG5 1-84)
binds: [3] | [4] | [5]

full length human APC11 fused to the Gal4 DNA activation domain (from UniProt Q9NYG5 1-84)
binds: [6] | [7]

full length human ROC2 fused to the Gal4 DNA activation domain (from UniProt Q9UBF6 29-113)
binds: [8] | [9] | [10]

HA tagged human ROC2 (from UniProt Q9UBF6 29-113)
not listed: [1] | [2] | [3] | [4] | [6] | [7] | [8] | [9] | [10]
binds: all other assays above

Reference: patent publication US7078203
